Assay: general procedure: Fmoc solid-phase peptide synthesis; Rink amide MBHA resin; DIC/Oxyma
Settings: whole synthesis, HPLC, scale of the general procedure 10.00 g resin, HCl salt (via TFA salt)

Ac-D-Cys-D-Ala-D-Arg-D-Arg-D-Arg-D-Ala-D-Arg-NH2
crude purity (method not given): 76%

From patent US12162954 (dated 2024)
